Measurements: US6821748B1, “Determination of cytotoxic substances in whole effluent samples” (priority 1998, dated 2004)
For at least one compound, name, drawing or mass did not settle the structure.

Tested on: Tetramitus rostratus flagellates
Experiment: Growth rate (slope ratio) of Tetramitus rostratus flagellate culture in presence of sample
Format: cell-based
Details: toxicant per single cell

For `[Cl][Cd][Cl]` [cadmium chloride], the “concentration which causes 20% inhibition in the rate of cell division (Slope Ratio=0.8)” value was 6-8×10^−5.
